Our source for the binding values is publication PMC3516556.

Amino acid sequences for entries named in this document (tags omitted). Residues count along the entry.
UniProt P42260, residues 32-908: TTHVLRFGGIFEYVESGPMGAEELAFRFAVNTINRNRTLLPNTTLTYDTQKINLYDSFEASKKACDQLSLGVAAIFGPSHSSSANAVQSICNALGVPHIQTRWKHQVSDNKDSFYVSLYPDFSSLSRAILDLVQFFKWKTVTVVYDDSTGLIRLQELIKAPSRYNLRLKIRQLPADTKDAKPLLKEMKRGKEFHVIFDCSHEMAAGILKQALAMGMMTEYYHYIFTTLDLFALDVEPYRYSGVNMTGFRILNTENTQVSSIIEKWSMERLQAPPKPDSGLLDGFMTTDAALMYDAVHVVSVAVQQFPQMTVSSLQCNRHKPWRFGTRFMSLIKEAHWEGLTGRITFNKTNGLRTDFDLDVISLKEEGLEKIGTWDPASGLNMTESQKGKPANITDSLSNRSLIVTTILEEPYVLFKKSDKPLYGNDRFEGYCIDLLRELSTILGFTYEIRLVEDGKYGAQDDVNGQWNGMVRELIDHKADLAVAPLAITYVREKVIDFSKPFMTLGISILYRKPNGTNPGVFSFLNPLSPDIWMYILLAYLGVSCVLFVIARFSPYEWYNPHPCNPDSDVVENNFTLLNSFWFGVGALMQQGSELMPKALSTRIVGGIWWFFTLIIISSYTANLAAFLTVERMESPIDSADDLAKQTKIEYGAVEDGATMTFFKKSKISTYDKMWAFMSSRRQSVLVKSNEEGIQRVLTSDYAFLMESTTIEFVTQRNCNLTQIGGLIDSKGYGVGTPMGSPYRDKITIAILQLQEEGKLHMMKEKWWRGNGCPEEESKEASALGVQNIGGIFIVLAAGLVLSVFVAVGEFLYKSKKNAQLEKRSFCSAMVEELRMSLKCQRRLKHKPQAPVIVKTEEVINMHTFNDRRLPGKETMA
UniProt P39087, residues 32-908: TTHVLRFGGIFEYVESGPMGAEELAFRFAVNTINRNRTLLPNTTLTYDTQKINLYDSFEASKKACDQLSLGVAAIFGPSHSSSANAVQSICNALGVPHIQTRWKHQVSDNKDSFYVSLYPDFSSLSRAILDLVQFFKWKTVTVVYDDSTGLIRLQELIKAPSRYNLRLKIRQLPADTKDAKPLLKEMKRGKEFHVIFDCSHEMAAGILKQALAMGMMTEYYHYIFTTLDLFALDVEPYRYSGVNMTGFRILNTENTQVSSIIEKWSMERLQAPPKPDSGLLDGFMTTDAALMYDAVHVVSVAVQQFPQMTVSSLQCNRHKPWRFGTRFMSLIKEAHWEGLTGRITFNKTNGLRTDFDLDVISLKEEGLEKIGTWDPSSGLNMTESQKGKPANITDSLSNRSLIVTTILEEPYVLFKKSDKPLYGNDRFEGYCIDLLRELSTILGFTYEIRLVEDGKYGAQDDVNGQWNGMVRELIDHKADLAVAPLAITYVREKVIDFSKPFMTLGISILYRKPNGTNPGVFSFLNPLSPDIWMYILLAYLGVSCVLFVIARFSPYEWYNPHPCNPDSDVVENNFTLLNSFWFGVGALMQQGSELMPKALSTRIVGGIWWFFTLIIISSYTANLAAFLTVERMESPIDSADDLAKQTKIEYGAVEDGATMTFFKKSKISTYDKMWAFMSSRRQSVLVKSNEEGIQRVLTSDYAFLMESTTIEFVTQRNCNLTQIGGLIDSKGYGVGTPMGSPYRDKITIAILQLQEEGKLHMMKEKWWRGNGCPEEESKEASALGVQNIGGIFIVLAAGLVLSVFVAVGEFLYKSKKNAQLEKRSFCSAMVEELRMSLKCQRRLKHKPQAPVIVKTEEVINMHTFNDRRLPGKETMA
UniProt Q62083, residues 22-105: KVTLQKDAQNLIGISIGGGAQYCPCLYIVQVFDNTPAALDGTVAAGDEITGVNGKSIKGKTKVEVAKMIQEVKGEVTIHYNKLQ

The target in assay [1] is T1, Neto2 (native, mouse brain) (mouse (endogenous in cerebellum and whole brain)) (UniProt Q8BNJ6).
T1 sequence: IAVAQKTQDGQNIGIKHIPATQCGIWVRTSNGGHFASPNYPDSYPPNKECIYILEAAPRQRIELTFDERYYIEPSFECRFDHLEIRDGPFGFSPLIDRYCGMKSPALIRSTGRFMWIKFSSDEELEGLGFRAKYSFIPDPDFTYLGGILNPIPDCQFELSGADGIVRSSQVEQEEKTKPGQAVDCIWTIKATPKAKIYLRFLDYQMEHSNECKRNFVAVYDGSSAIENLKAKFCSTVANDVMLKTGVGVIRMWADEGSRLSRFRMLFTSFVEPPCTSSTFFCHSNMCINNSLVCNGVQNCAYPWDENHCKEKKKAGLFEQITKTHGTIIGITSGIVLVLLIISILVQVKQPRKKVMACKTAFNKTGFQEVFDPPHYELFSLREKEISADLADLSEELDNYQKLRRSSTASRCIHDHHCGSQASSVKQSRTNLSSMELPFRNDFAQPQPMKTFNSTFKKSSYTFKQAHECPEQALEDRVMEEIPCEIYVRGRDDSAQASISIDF
Description: co-IP; mouse cerebellar lysates (wild-type; Neto2-null as control), immunoprecipitation with anti-Neto2 antibodies, immunoblot. Background: Immunoblotting shows a protein as a band on a membrane.

For assay [2], the target named is T2, Neto2 cytoplasmic domain (Neto2(CD), amino acids 368-525) fused to the GAL4 DNA-binding domain (mouse) (UniProt Q8BNJ6).
T2 sequence: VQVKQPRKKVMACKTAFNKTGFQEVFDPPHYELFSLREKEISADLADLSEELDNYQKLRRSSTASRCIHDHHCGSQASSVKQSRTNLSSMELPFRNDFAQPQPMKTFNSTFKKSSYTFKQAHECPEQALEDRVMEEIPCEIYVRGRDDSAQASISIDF
Description: two-hybrid; GAL4 DNA-binding domain fusions in pDBLeu, GAL4 activation domain fusions in pPC86, MaV203 cells; growth on -Trp/-Leu/-His and lacZ reporter (ß-galactosidase assay).

For assay [3], the target named is FLAG-GluK2 (UniProt P42260). Description: co-IP; COS-7 cells transfected with combinations of FLAG-GluK2, Neto2 or Neto2Δ7 and GRIP(PDZ4-7)-myc; lysates immunoprecipitated with an anti-GluK2 antibody, western blot.

These are yes or no findings as the source states them, for the method shown. For some of these results: In cells and extracts the contact can be indirect. Some binding calls cover weakened binding; strength is not graded here. For some of these results: Tags and fused reporters may be left off the sequences shown.

“GluK2 KAR subunit (native, mouse cerebellum) (from UniProt P39087 32-908) (receptor)”: the binding result in assay [1] is given as “binds”.

Regarding “PDZ domain of PICK1 (two-hybrid prey) (from UniProt Q62083 22-105) (domain or fragment)”, in assay [2], the binding entry is “no binding”.

B1: Full length mouse Neto2 (expressed in COS-7) (protein, UniProt Q8BNJ6 23-525)
chain: T1 sequence
Consider B1, for which, in assay [3], the binding result is on record as “binds”.

B2: GluK5 KAR subunit (native, mouse cerebellum) (receptor, UniProt Q61626 15-979)
chain: NPSCQVLSSLRMAAILDDQTVCGRGERLALALAREQINGIIEVPAKARVEVDIFELQRDSQYETTDTMCQILPKGVVSVLGPSSSPASASTVSHICGEKEIPHIKVGPEETPRLQYLRFASVSLYPSNEDVSLAVSRILKSFNYPSASLICAKAECLLRLEELVRGFLISKETLSVRMLDDSRDPTPLLKEIRDDKVSTIIIDANASISHLVLRKASELGMTSAFYKYILTTMDFPILHLDGIVEDSSNILGFSMFNTSHPFYPEFVRSLNMSWRENCEASTYPGPALSAALMFDAVHVVVSAVRELNRSQEIGVKPLACTSANIWPHGTSLMNYLRMVEYDGLTGRVEFNSKGQRTNYTLRILEKSRQGHREIGVWYSNRTLAMNATTLDINLSQTLANKTLVVTTILENPYVMRRPNFQALSGNERFEGFCVDMLRELAELLRFRYRLRLVEDGLYGAPEPNGSWTGMVGELINRKADLAVAAFTITAEREKVIDFSKPFMTLGISILYRVHMGRKPGYFSFLDPFSPAVWLFMLLAYLAVSCVLFLAARLSPYEWYNPHPCLRARPHILENQYTLGNSLWFPVGGFMQQGSEIMPRALSTRCVSGVWWAFTLIIISSYTANLAAFLTVQRMEVPVESADDLADQTNIEYGTIHAGSTMTFFQNSRYQTYQRMWNYMQSKQPSVFVKSTEEGIARVLNSRYAFLLESTMNEYHRRLNCNLTQIGGLLDTKGYGIGMPLGSPFRDEITLAILQLQENNRLEILKRKWWEGGRCPKEEDHRAKGLGMENIGGIFVVLICGLIIAVFVAVMEFIWSTRRSAESEEVSVCQEMLQELRHAVSCRKTSRSRRRRRPGGPSRALLSLRAVREMRLSNGKLYSAGAGGDAGAHGGPQRLLDDPGPPGGPRPQAPTPCTHVRVCQECRRIQALRASGAGAPPRGLGTPAEATSPPRPRPGPTGPRELTEHE
As to B2, the binding result in assay [1] is recorded as “binds”.
